# The list shows a part of the results.
# Tested on: T1, CTL2-GFP (C. trachomatis L2/434/Bu, GFP-expressing)
# T1 construct: L2/434/Bu, GFP-expressing
# Parameters: species or system HeLa; Intracellular C. trachomatis growth in HeLa cells, bulk GFP fluorescence relative to DMSO
# Settings: bulk GFP, single well; 28.5 h, 10 µM; inhibitor
row,Structure (SMILES),% of control remaining
1,COc1ccc([C@@]23CC[C@@H](NC(=O)Nc4ccc(F)c(F)c4)C[C@@H]2N(C)CC3)c(F)c1OC [CBK067405],52.3817%
2,CC1(C)CC(=O)C2=C(C1)NC(Nc1nc3ccccc3o1)=NC2c1ccccn1 (stereo not drawn) [CBK269978],138.553%
3,CONc1nc(/N=C/N(C)C)nc2c1ncn2C1CC(O)C(CO)O1 (stereo not drawn) [CBK201335],183.841%
4,CC1(C)Sc2nc3ccccc3n2C1=O [CBK022971],127.096%
5,Cc1[nH]c2c(C(=O)O)cccc2c1-c1ccccc1 [CBK012486],142.274%
6,Cn1ccnc1C1(O)CCN(C(=O)C2(c3ccccc3)CC2)CC1 [CBK283538],114.603%
7,CCCCN(C(=O)C(F)(F)c1ccccc1)c1c(N)n(CCC)c(=O)[nH]c1=O [CBK297769],164.747%
8,O=C(c1ccc(F)cc1)c1ccc(CSc2nnc3sc4ccccc4n23)cc1 [CBK265553],135.62%
9,Cc1cc(C)nc(N/C(=N\C(=O)c2ccccc2)N2CCC(C(N)=O)CC2)n1 [CBK263910],87.5072%
10,CSc1nnc(SCC(=O)N2CCC(C(F)(F)F)CC2)s1 [CBK057829],122.521%
11,Cc1csc(C(Cc2ccsc2)NC(=O)c2scnc2C)n1 (stereo not drawn) [CBK285098],123.136%
12,Cc1cc(=O)[nH]c(N/N=C/c2ccc(Cl)cc2Cl)n1 [CBK024387],113.802%
13,Nc1ncnc2c1nc(OCc1ccccc1)n2C1CC(O)C(CO)O1 (stereo not drawn) [CBK201164],99.5805%
14,CC(Oc1ccc(Cl)cc1Cl)C(=O)Nc1ccc(O)cc1 (stereo not drawn) [CBK264120],134.117%
15,CC1CCCN(CC(C)(C)NC(=O)c2cc(C3CC3)on2)C1 (stereo not drawn) [CBK281677],141.744%
16,COc1ccccc1CNc1ccc(C(=O)O)cc1 [CBK078187],89.2681%
17,CC(C)Nc1nccnc1SCc1ccc(Cl)c(Cl)c1 [CBK103657],102.106%
18,CCOC(=O)c1c(NC(=O)/C=C/C(=O)O)sc2c1CCCCC2 [CBK265299],100%
19,Cc1csc2c(C3CCN(C(=O)c4ccccn4)CC3)nc(C)n12 [CBK285244],129.158%
20,CC(=O)c1ccc(-c2cc(C(=O)NC3CCc4ccccc43)cnc2-c2ccc(Cl)cc2)s1 (stereo not drawn) [CBK036762],119.998%

# Pulled by compound from the entries so far, two records:
row,Structure (SMILES),% of control remaining
5,Cc1[nH]c2c(C(=O)O)cccc2c1-c1ccccc1 [CBK012486],142.274%
1,COc1ccc([C@@]23CC[C@@H](NC(=O)Nc4ccc(F)c(F)c4)C[C@@H]2N(C)CC3)c(F)c1OC [CBK067405],52.3817%

# Later entries.

row,Structure (SMILES),% of control remaining
1,CC(C)c1csc(NC(=O)CC2CCN(S(=O)(=O)c3cccc(F)c3)CC2)n1 [CBK285902],130.079%
2,Cc1nn(-c2ccccc2)c(Cl)c1C1NC(=O)c2c(sc(C)c2C)N1 (stereo not drawn) [CBK288086],73.0936%
3,Cc1nnc(C(C)N2CCN(Cc3noc(C(C)(C)C)n3)CC2)o1 (stereo not drawn) [CBK305171],92.9128%
4,O=C(c1ccccc1)c1ccc(S(=O)(=O)N2CCCN(Cc3cc(F)c(F)c(F)c3)CC2)cc1 [CBK062777],107.476%
5,O=C(O)c1cccc(NS(=O)(=O)c2ccc(-c3cnco3)cc2)c1 [CBK155726],84.2162%
6,Cc1ccc(C(=O)N2CCN(C(=O)CN3CCN(C)CC3)C2)cc1 [CBK024841C],122.462%
7,O=C(O)C1CSC(c2ccccc2)N1 (stereo not drawn) [CBK261008],99.1494%
8,CCN(CC)C(=O)c1ccccc1NS(=O)(=O)c1ccc(OC)c(OC)c1 [CBK045423],56.991%
9,CC(C)CC(=O)N[C@@H](C)Cn1nc(-c2cccs2)oc1=O [CBK284336],97.0118%
10,N=c1n(CCN2CCCC2)c2ccccc2n1CC(O)c1ccc(Cl)c(Cl)c1 (stereo not drawn) [CBK263448C],119.407%
11,N#Cc1ccc(Oc2ccc(C(=O)NCC(=O)O)cc2)cc1 [CBK286579],115.483%
12,COC(=O)c1cccc(CN2CCC3(CC2)OCCc2c3[nH]c3ccc(F)cc23)c1 [CBK040326],96.7028%
13,O=C(O)c1ccc(CN2CCOCC2)o1 [CBK261426C],112.038%
14,Cc1ccc(NC(=O)N2CCCC(C(=O)O)C2)cc1 (stereo not drawn) [CBK161371],119.177%
15,Cc1cc(NC(=O)C2CCN(C(=O)CCSc3ccccc3)CC2)no1 [CBK304329],129.099%
16,CSCCC(C(=O)O)N1CNC(=S)NC1 (stereo not drawn) [CBK011382],100%
17,O=C(Nc1ccccc1-c1ccccc1)c1cc(-c2ccncc2)nc2ccc(Cl)cc12 [CBK267759],103.913%
18,CC1CCc2nc(NC(=O)C3CN(S(=O)(=O)c4ccc(F)cc4)C3)sc2C1 (stereo not drawn) [CBK286004],95.8893%
19,Cc1ccc2[nH]c3c(c2c1)CC(NS(=O)(=O)c1c(N)noc1C)CC3 (stereo not drawn) [CBK306270],155.086%
